In patent US7943600B2, “Antimicrobial combination therapy” (priority 2004, dated 2011):
At least one structure is not confirmed: it was looked up by name or label, or the drawing left a doubt.

Tested on: MG1655 wild-type cells
Test: Survival curves after cisplatin treatment
Type: cell-based, E. coli
Conditions: tetracycline added to wild-type cells at the time of cisplatin treatment

For `CN(C)[C@@H]1C(O)=C(C(N)=O)C(=O)[C@@]2(O)C(O)=C3C(=O)c4c(O)cccc4[C@@](C)(O)[C@H]3C[C@@H]12` [tetracycline], which “effect of tetracycline added during cisplatin treatment on survival” value is on record?
The value was “did not affect their survival”.
